From PubChem BioAssay AID588497 (NMMLSC, 2011)
Out of some 360,000 compounds screened, about 780 (0.22%) were called active. The shares of active, inactive and inconclusive entries below differ from those in the screen. Rule as the data show it: active = inhibition above about 35% (passing the limit was not always enough); inconclusive = no clear call, values can overlap the other calls.

Test system: Botulinum neurotoxin type F light chain protease (Clostridium botulinum)
Assay: BoNT/F light chain protease inhibitors, primary screen, biochemical, flow cytometry, MLPCN library (AID 588497); also: plate controls were buffer without enzyme for full effect and enzyme alone for no effect
Conditions: Multiplex microsphere protease cleavage assay, at 10 µM, hits give high values

| SMILES | inhibition |
| --- | --- |
| CCN(CC)CCCNC(=S)N1CCC(c2nc3ccccc3[nH]2)CC1 | inconclusive: 11.3% |
| CCOC(=O)C(C(=O)OCC)N(C#N)c1nc(SC)nc(N(C)C)n1 | inconclusive: 11.7% |
| COC(=O)c1ccc(S(=O)(=O)c2ccc([N+](=O)[O-])cc2)cc1 | inconclusive: -9.2% |
| O=C(NC1CCCN(CCc2ccccc2)C1)c1c(F)cccc1F (stereo unspecified) | inconclusive: -10.6% |
| CCCSc1nnc(NC(=O)Nc2ccccc2OC)s1 | inconclusive: -28.8% |
| Cc1ccc(N2CCN(C(=O)NC3CCCCC3)CC2)c(C)c1 | inconclusive: -2.8% |
| Cc1ccc(/C=N/OC(=O)c2c(C)noc2-c2snnc2C)cc1 | inconclusive: -102% |
| C=CCOc1ccccc1/C=N/n1nnnc1N | inconclusive: 0.8% |
| Cc1ccc2oc(=O)n(CCC(=O)Nc3ccc(N4CCOCC4)cc3)c2c1 | inconclusive: -8.9% |
| COc1cc(NC(=O)COc2cc(O)c3c(c2)OC(C)(C)CC3=O)cc(OC)c1 | inactive: 8.3% |
| O=[N+]([O-])c1ccc2c(c1)/C(=N\O)c1ccccc1-2 | inconclusive: -29.5% |
| N/C(Cc1cccc2ccccc12)=N\O | inconclusive: 25.3% |
| Cc1cc(Cl)c2oc(C(=O)NC3CCC(O)CC3)c(C)c2c1 (stereo unspecified) | inconclusive: 13.1% |
| CCCCn1c2nc3ccccc3nc2c2c(=O)n(C(C)CC)cnc21 (stereo unspecified) | inactive: 2.6% |
| O=C(Nc1ccccc1C(=O)O)c1cccc(NC(=O)c2ccco2)c1 | inconclusive: -15.5% |
| Cc1c(C(=O)NCc2cccc([N+](=O)[O-])c2)sc(=O)n1Cc1ccccc1F | inactive: -0.6% |
| Cc1nc2sc(C(c3ccc(Cl)cc3)N3CC(C)OC(C)C3)c(O)n2n1 (stereo unspecified) | active: 35.9% |
| CNC(=O)/C(C#N)=C1/SC(Cc2ccc(F)cc2)C(=O)N1c1ccccc1 (stereo unspecified) | inconclusive: 14.1% |
| Cc1nc(N2CCN(c3ccccc3F)CC2)[nH]c(=O)c1C | inconclusive: 2.7% |
| ClC1(Cl)CC1CSc1nnc(-c2ccncc2)o1 (stereo unspecified) | inconclusive: -15.7% |
| Cc1ccccc1Cn1ccc(NC(=O)CCSc2nc(-c3ccco3)cc(C(F)(F)F)n2)n1 | inconclusive: -10.1% |
| Brc1cnc2nc(SC/C=C/c3ccccc3)[nH]c2c1 | inconclusive: 23.7% |
| COCCSc1nnc(NC(=O)c2ccco2)s1 | inconclusive: -9.5% |

| SMILES | inhibition |
| --- | --- |
| O=C(COC(=O)c1cccnc1Cl)Nc1nc(-c2ccccc2)cs1 | inactive: -4.3% |
| CCOc1ccc(S(=O)(=O)Nc2ccccc2SC)c2cccnc12 | inconclusive: 7.5% |
| Oc1ccccc1CNCCCN1CCOCC1 | inconclusive: -66.6% |
| CN1C(=O)C(=Cc2ccc(N3CCCCCC3)o2)C(=O)N(C)C1=S | active: 197% |
| CC1CCCC(C)N1CC(O)COC1CCC(C(C)(C)C)CC1 (stereo unspecified) | inconclusive: 14.4% |
| CCN(CC)CCCN(CC(=O)N(C)Cc1ccccc1)C(=O)c1ccc([N+](=O)[O-])cc1 | inconclusive: 0.7% |
| Cc1ccc(NCc2nc(SCC(=O)Nc3ccccc3)n[nH]2)cc1 | inconclusive: -28.5% |
| COc1ccc([N+](=O)[O-])cc1N(CC(O)CN1C(=O)NC(C)(C)C1=O)S(=O)(=O)c1ccccc1 (stereo unspecified) | inactive: -11.2% |
| Cc1cc(C(F)(F)F)cc(NNC(=O)NC(=O)c2c(F)cccc2Cl)n1 | inconclusive: 92.1% |
| CCN(CC)C(=O)COc1coc(CN2CCN(c3ccccc3)CC2)cc1=O | inactive: 6.2% |
| COc1ccc2c(c1)c(=O)oc1c(C)c(OC(C)C(=O)N[C@@H](Cc3c[nH]c4ccc(O)cc34)C(=O)O)ccc12 (stereo partly specified) | inactive: -12.6% |
| CC(C)(C)NC(=O)C1N(c2cccnc2)C(=O)C2C(C(=O)Nc3ccccc3)C3(C)C=CC21O3 (stereo unspecified) | inactive: -8.6% |
| CCN(CC(=O)Nc1c(F)cccc1F)C(=O)c1ccc(N2CCOCC2)c([N+](=O)[O-])c1 | inconclusive: -5.1% |
| CCCCOC(=O)C1=C(C)NC(=O)NC1c1ccc(OC)cc1 (stereo unspecified) | inconclusive: -19.8% |
| O=C(Nc1ccccc1)Nc1ccno1 | inconclusive: 71% |
| Cc1cc(C)cc(N2CCCC2=O)c1 | inconclusive: -13.7% |
| O=[N+]([O-])c1cccc(CN2CCC(Cc3ccccc3)CC2)c1 | inconclusive: -23.6% |
| CCOC(=O)C1(CCOc2ccccc2)CCN(Cc2ccc(C(=O)OC)cc2)CC1 | inconclusive: 17.3% |
| COc1ccc(CCn2c(C(C)C)nc3oc4ccccc4c(=O)c3c2=O)cc1 | inconclusive: -81.7% |
| Cc1cccc(CCNC(=O)C2CCN(S(=O)(=O)c3c(C)nn(C)c3C)CC2)c1 | inconclusive: -0.7% |
| CCn1c2ccccc2c2cc(NC(=O)c3ccccc3-c3ccccc3C(=O)O)ccc21 | inconclusive: -47% |
| O=C(Nc1ccc(Cl)cc1)Nc1ccc(N2CCC(C(F)(F)F)CC2)nc1 | inconclusive: -35.9% |
| O=C(N/N=C/c1cccnc1)c1cccc(Br)c1 | inconclusive: -18.2% |

| SMILES | inhibition |
| --- | --- |
| CC(C)CCNC(=O)c1cc2c(s1)-c1ccccc1S(=O)(=O)C2 | inactive: -8.9% |
| COc1ccc(C(=O)NC2=NCCS2)cc1 | inconclusive: -2.4% |
| Cc1ccc(-n2c(O)c(/C=C/C=Nc3ccccc3)c(=O)[nH]c2=O)cc1 | inactive: 6.4% |
| CC(=O)Nc1nnc(CSCc2ccc(F)cc2)s1 | inconclusive: 1.6% |
| O=C(COC(=O)c1cnccn1)Nc1ncc(Cl)cc1Cl | inconclusive: -8.7% |
| Oc1ccc(/C=C/c2cnccn2)cc1 | inconclusive: 1.1% |
| N#CC1=C(N)OC2=C(C(=O)CCC2)C1c1ccccc1 (stereo unspecified) | inconclusive: -7.2% |
| CCN(CC)CC(=O)NC1CCCc2c1cnn2-c1cc(F)cc(F)c1 (stereo unspecified) | inconclusive: 12.2% |
| Cc1ccccc1CNC(=O)c1csc([C@@H]2O[C@H](CO)[C@@H](O)[C@H]2O)n1 | inactive: 2.1% |
| CC(=O)Nc1ccc(S(=O)(=O)N2CCCC3CCCCC32)cc1 (stereo unspecified) | inconclusive: 12.9% |
| CCN(C(=O)Cn1ccc(C(F)(F)F)n1)c1c(N)n(Cc2ccccc2)c(=O)[nH]c1=O | inactive: -0.1% |
| CCOC(=O)C1=C(C)NC(C)=C(C(=O)OCC)C1C(=O)OCC(=O)NCCc1ccc(S(N)(=O)=O)cc1 | inconclusive: 18.4% |
| CC1CCN(C(=O)c2cc(F)c(F)cc2Cl)CC1 | inconclusive: 3.7% |
| COc1ccc(CCNC(=O)CCc2cn(C)c3ccccc23)c(OC)c1OC | inconclusive: -12.7% |
| CCCCNC(=O)N(O)C1N(/N=C/c2ccccc2OC)C(=S)SC1(C)C (stereo unspecified) | active: 61.7% |
| COc1ccc(C(=O)N/N=C(\C)CC(=O)NC2CCCCC2)c(OC)c1 | inactive: -7.2% |
| COc1cc2[nH]cc(C(=O)NCCc3ccccc3)c(=O)c2cc1OC | inactive: -1.9% |
| COC(=O)NNC(=S)Nc1ccc(Br)cc1 | inactive: -2.4% |
| O=C(Nc1ccccc1[N+](=O)[O-])c1nc[nH]c1C(=O)NCCO | inactive: 10.4% |
| O=C(CN1CCOCC1)Nc1ccc(Cl)cc1 | inconclusive: 23.3% |
| NNC(=O)c1ccccc1OCc1ccccc1 | inconclusive: -21% |
| COC(=O)c1c(NC(=O)COC(=O)CCc2ccc(S(=O)(=O)N3CCOCC3)cc2)sc2c1CCC2 | inactive: 7% |
| CCN(C1CCCCC1)S(=O)(=O)CCNC(=O)c1ccc2c(c1)OCO2 | inconclusive: 19.3% |

Look-ups from the results shown.
COC(=O)c1c(NC(=O)COC(=O)CCc2ccc(S(=O)(=O)N3CCOCC3)cc2)sc2c1CCC2 | inhibition: inactive: 7%
CCN(C1CCCCC1)S(=O)(=O)CCNC(=O)c1ccc2c(c1)OCO2 | inhibition: inconclusive: 19.3%

Remaining list, next part

| SMILES | inhibition |
| --- | --- |
| COCc1cc(=O)[nH]c(-c2ccccc2OC(F)(F)F)n1 | inconclusive: 12.6% |
| O=C(CN1C(=O)COc2ccccc21)c1cccc(Cl)c1 | inactive: -4.4% |
| CCCCOc1cccc(C(=O)Nc2ccccc2N2CCCC2)c1 | inconclusive: -27.9% |
| Cc1ccc(C(=O)NCC(=O)NCCSc2ccc(Br)cc2)cc1 | inconclusive: -1.2% |
| COc1cccc(C2C(C(=O)OC(C)C)=C(C)Nc3ncnn32)c1 (stereo unspecified) | inactive: -5.1% |
| O=C1C(=O)N(c2ccccn2)C(c2cccc([N+](=O)[O-])c2)/C1=C(/O)c1ccc(Br)cc1 (stereo unspecified) | inconclusive: -41.4% |
| CCCc1nnc(NC(=O)CCC(=O)N2CCN(c3nc(C)cc(C)n3)CC2)s1 | inconclusive: -62.7% |
| O=C(N(c1ccccc1)c1ccccc1)N(c1ccccc1)c1ccccc1 | inconclusive: -103% |
| COc1cccc(NC(=O)c2ccc3c(c2)OCO3)c1 | inconclusive: -58.7% |
| Brc1ccc(CNc2nc3ccccc3n2CCN2CCCCC2)cc1 | inconclusive: 43.9% |
| O=C(Nc1ccc2c(c1)OCCO2)c1ccc(Cl)cc1 | inconclusive: 8.8% |
| O=C(O)c1ccc(CSc2nc3ccccc3c(=O)n2-c2ccccc2)cc1 | inconclusive: -19.9% |
| CCOC(=O)N1CCC(NC(=O)C2CCN(S(=O)(=O)c3c(C)noc3C)CC2)CC1 | inconclusive: 27.3% |
| COc1cc2ccccc2cc1C(=O)N/N=C/c1ccc2c(c1)OCO2 | inactive: 9.1% |
| O=C(O)CC1Cc2ccccc2C1C(=O)O (stereo unspecified) | inactive: 7.2% |
| COc1cc2c(cc1OC)C(c1cccc(Cl)c1)CC(=O)N2 (stereo unspecified) | inconclusive: 20% |
| Cc1cc(C(=O)O)ccc1NCc1ccncc1 | inconclusive: 44.4% |
| COC(=O)c1sccc1-n1cc(C#N)c(=O)n(C)c1=O | inactive: -13.8% |
| Cc1cccc(C(CC(=O)O)n2cccc2)c1 (stereo unspecified) | inconclusive: 27.3% |
| CCOC(=O)C(C(=O)N(C)Cc1ccccc1)C1CCCCC1 (stereo unspecified) | inconclusive: 32.4% |
| Cn1c(SCC(=O)N/N=C/c2ccccn2)nnc1-c1ccccc1 | inconclusive: 9.9% |
| CCCn1c2ccc(F)cc2c2nnc(SCCN3CCCCC3)nc21 | inconclusive: -21.2% |

Ordered by SMILES length (high to low): 3 of the compounds above.

| SMILES | inhibition |
| --- | --- |
| COC(=O)c1sccc1-n1cc(C#N)c(=O)n(C)c1=O | inactive: -13.8% |
| O=C(CN1C(=O)COc2ccccc21)c1cccc(Cl)c1 | inactive: -4.4% |
| Cc1cc(C(=O)O)ccc1NCc1ccncc1 | inconclusive: 44.4% |
